The values that follow are results of earlier work, collected in PMC2774688, “Cellular Ser/Thr-Kinase Assays Using Generic Peptide Substrates” (Current Chemical Genomics, 2008).

For the series, the system named is PI3K. Conditions: read-out: IC50 in vitro potency on PI3K, no reference given; cited from earlier work.

Regarding `CN[C@@H]1C[C@H]2O[C@@](C)([C@@H]1OC)n1c3ccccc3c3c4c(c5c6ccccc6n2c5c31)C(=O)NC4` [Staurosporine], the IC50 was ~9 µM.

For orientation: IC50 means the concentration that inhibits the measured activity by half.
